Assay results published in PMC5741637.
These are yes or no findings as the source states them, for the method shown. Binding calls can cover weak binding; strength is not graded here.

Molecular target: COP1 RING domain (aa 1-104) in pGBK (bait) (Arabidopsis thaliana)
Assay: two-hybrid; Matchmaker GAL4 system, yeast AH109; COP1 full and partial cDNAs in pGBK as baits, FKF1 full and partial cDNAs in pGAD as prey; yeast cell growth and beta-galactosidase activity (CPRG)

binding: binds
B1: FKF1 KELCH domain (aa 283-618) in pGAD (prey) (domain or fragment, UniProt Q9C9W9 283-618)
chain: ELTTLEAVCWRKFTVGGIVQPSRCNFSACAVGNRLVLFGGEGVNMQPLDDTFVLNLDAECPEWQRVRVTSSPPGRWGHTLSCLNGSWLVVFGGCGRQGLLNDVFVLDLDAKHPTWKEVAGGTPPLPRSWHSSCTIEGSKLVVSGGCTDAGVLLSDTFLLDLTTDKPTWKEIPTSWAPPSRLGHSLSVFGRTKILMFGGLANSGHLKLRSGEAYTIDLEDEEPRWRELECSAFPGVVVPPPRLDHVAVSMPCGRVIIFGGSIAGLHSPSQLFLIDPAEEKPSWRILNVPGKPPKLAWGHSTCVVGGTRVLVLGGHTGEEWILNELHELCLASRQDSD
